4 molecules from PMC11324527, “Cryo-EM architecture of a near-native stretch-sensitive membrane microdomain” (Nature, 2024) can be followed below.

Chains of the proteins cited; added tags and fusions are not shown.
UniProt P32600: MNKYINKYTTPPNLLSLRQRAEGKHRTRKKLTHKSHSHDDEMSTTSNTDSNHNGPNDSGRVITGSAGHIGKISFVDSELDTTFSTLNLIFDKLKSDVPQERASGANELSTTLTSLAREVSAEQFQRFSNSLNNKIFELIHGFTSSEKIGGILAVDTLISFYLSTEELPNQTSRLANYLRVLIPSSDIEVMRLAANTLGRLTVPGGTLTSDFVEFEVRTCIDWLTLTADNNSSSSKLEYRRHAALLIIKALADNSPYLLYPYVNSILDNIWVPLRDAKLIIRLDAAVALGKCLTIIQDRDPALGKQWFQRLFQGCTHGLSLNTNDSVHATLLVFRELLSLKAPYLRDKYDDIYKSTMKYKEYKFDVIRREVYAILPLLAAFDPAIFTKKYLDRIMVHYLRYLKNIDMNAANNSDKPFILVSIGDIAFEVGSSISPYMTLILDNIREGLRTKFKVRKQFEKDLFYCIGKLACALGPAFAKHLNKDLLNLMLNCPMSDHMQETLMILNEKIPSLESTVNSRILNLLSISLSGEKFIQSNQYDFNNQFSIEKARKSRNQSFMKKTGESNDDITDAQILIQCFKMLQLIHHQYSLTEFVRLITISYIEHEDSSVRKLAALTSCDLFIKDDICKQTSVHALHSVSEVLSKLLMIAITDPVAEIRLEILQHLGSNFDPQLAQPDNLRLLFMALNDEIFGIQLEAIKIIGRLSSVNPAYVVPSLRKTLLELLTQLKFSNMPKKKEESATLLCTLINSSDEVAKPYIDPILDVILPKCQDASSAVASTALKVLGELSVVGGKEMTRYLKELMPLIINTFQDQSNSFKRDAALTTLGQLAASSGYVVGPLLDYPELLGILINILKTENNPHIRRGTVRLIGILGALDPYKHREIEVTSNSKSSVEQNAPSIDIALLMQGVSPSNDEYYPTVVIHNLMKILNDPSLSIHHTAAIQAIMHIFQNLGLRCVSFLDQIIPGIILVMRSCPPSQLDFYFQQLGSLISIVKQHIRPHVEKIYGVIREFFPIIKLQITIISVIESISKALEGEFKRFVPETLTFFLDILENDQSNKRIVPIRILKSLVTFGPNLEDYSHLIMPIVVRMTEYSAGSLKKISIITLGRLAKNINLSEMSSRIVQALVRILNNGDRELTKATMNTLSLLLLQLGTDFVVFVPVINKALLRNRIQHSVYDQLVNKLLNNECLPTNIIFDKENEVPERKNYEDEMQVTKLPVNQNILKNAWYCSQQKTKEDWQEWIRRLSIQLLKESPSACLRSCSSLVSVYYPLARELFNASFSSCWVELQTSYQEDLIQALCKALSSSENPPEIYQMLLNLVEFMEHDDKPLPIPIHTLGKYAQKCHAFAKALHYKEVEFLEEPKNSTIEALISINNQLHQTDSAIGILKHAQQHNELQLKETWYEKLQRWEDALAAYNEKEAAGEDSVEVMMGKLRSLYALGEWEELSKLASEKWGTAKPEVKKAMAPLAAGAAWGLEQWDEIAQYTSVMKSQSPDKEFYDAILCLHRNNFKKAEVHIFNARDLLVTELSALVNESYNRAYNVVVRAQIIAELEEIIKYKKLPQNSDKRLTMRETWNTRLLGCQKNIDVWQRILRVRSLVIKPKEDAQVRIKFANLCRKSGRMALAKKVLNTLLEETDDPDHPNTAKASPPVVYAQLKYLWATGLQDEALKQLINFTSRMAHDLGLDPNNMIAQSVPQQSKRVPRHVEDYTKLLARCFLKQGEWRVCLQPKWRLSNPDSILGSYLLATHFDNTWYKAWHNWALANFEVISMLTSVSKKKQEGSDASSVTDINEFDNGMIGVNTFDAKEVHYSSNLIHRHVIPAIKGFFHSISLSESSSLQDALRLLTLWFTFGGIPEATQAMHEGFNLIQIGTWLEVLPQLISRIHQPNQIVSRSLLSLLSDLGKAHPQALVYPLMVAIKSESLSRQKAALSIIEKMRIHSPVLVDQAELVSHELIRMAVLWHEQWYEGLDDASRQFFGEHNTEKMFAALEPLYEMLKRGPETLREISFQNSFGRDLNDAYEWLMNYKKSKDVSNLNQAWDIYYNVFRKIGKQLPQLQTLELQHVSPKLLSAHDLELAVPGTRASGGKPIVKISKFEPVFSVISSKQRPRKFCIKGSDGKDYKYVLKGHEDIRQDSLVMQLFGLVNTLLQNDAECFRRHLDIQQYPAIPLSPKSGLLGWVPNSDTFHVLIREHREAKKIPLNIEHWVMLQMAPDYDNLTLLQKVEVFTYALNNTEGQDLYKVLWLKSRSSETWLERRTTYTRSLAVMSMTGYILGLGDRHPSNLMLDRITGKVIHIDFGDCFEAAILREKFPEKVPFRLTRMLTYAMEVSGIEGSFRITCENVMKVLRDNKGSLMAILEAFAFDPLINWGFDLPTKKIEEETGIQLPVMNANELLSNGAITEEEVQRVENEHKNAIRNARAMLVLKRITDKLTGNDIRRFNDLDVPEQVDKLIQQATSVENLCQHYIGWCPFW

Results are given in words; binding and its absence hold for the method and conditions named. For some of these results: In cells and extracts the contact can be indirect. Some entries that bind do so weakly or less than the wild type.

The target of assay [1] is T1, Bit61-TAP (S. cerevisiae (endogenous in yeast)) (UniProt P47041).
T1 sequence: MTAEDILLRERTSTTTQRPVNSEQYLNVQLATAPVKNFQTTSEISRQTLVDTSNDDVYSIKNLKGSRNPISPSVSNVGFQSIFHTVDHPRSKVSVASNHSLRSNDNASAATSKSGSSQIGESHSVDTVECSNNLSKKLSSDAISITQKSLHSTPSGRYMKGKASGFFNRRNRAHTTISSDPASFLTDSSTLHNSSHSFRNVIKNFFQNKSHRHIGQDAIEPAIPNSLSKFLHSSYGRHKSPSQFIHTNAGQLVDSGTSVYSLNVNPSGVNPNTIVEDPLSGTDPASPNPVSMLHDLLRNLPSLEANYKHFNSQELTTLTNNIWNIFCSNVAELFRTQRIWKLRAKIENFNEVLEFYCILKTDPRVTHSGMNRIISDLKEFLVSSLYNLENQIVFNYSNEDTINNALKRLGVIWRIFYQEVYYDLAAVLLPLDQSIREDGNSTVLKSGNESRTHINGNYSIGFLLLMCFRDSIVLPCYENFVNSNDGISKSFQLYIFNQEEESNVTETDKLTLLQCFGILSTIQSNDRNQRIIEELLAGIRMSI
Description: pull-down; Bit61-TAP from cleared yeast lysate on IgG-coupled Dynabeads, 50 mM PIPES pH 7, 300 mM NaCl, CHAPS, 4 °C, eluted with TEV protease; Coomassie-stained gel.

Assay [2] concerns the target Pil1 (native-source eisosome) (S. cerevisiae (endogenous in yeast)) (UniProt P53252). The assay is described as follows: cryo-EM structure; native-source eisosome tubules isolated from S. cerevisiae with bound plasma membrane bilayer; helical reconstruction of nine tubule types, symmetry expansion and density subtraction; dimers in a helical lattice.

For the molecule Tor2 (from UniProt P32600 1-2474), the binding entry in assay [1] is reported as “binds”.

B1: Pil1 (native-source eisosome) (natural protein, S. cerevisiae (endogenous in yeast), UniProt P53252 1-339, looked up)
chain: MHRTYSLRNSRAPTASQLQNPPPPPSTTKGRFFGKGGLAYSFRRSAAGAFGPELSRKLSQLVKIEKNVLRSMELTANERRDAAKQLSIWGLENDDDVSDITDKLGVLIYEVSELDDQFIDRYDQYRLTLKSIRDIEGSVQPSRDRKDKITDKIAYLKYKDPQSPKIEVLEQELVRAEAESLVAEAQLSNITRSKLRAAFNYQFDSIIEHSEKIALIAGYGKALLELLDDSPVTPGETRPAYDGYEASKQIIIDAESALNEWTLDSAQVKPTLSFKQDYEDFEPEEGEEEEEEDGQGRWSEDEQEDGQIEEPEQEEEGAVEEHEQVGHQQSESLPQQTTA
notes: Pil1, BAR-domain eisosome protein of S. cerevisiae; model built up to residue 274 (C-terminal region from residue 275 removed, no density); Stands in the tubules as dimers in a helical lattice; also called Pil1/Lsp1; PIL1_YEAST; source: endogenous, untagged, S. cerevisiae
Take B1: the binding result in assay [2] was “binds”.

B2: Avo3 (protein, UniProt P40061 1-1430)
chain: MSIPHSAKQSSPLSSRRRSVTNTTPLLTPRHSRDNSSTQISSAKNITSSSPSTITNESSKRNKQNLVLSTSFISTKRLENSAPSPTSPLMARRTRSTMTKALLNLKAEINNQYQELARLRKKKDDIEHLRDSTISDIYSGSYSTNHLQKHSMRIRANTQLREIDNSIKRVEKHIFDLKQQFDKKRQRSLTTSSSIKADVGSIRNDDGQNNDSEELGDHDSLTDQVTLDDEYLTTPTSGTERNSQQNLNRNSTVNSRNNENHSTLSIPDLDGSNKVNLTGDTEKDLGDLENENQIFTSTTTEAATWLVSDYMQSFQEKNVNPDFIAQKANGLVTLLKEHSEIRKDLVLTSFMSSIQNLLLNGNKLIAASAYRVCRYLINSSIFIDELLELRLDAFIIISLAKDNSFQIEREQALKMVRRFIEYNNGVTQGIMQAIISCVEKPEDSLRHMALETLLELCFVAPEMVKECRGMRVIEGFLQDYTSFSLASVILDTILQLMATHKTRQHFLEDFNVSVLTTVFSDTNTKSNVNVEKMQNASTLISITLNSYNGFMLFSNNNFKPLKQLVSFFQIPICAQYLIDIFLDVLKIKPLPYKPRGRHSHSFKPIPSQYYKECMSVNQRLALIVLILENSEFVPHLLELLNEEDRDDHLVAKGRYLLTEYFNLRMNLVDKKYTSVSKPIYKENFTYVNETFQFKKIAYKMNRNRNTIGMSGIDYAQNIKSFSKNIKENTLLREVDDFRFRRMVYDSKVLQTKDFTRWNWNIINELLEGPLLNKKQLEELVKSTKFIRRLLVFYRPLRLRFSNVNKGAKLSQKYVQVGCQFFKTLTATPEGMKILMDDTKIIPQLASLMFRAMEGNISGNIFNKNKLREKIIFGYFKFIGILTQSKNGVHILTRWNFFTVIYKMFQFESKLGLEFLLLTIPELDLKYSSHCRVIIGKALVVANEKVRIEATKHIGDKLKELLSTKESDLKLKANKVKLQQFKMEMLTRQLYDLSPSVVAVADQALYECIVAGNGSEELGTSFRMFLNQMVFIRSPILFELLSRPYGFQLLNEINFVKEERDSWLSKKNIEYVHIVEEFLKKNESINAKSLTFQQKSRLPLHFYESLTKTEDGILLLSQTGDLVTFMNVIKKYVNGNNMATVENAKEILDLKAALWCVGFIGSTELGIGLLDNYSLVEDIIEVAYNASVTSVRFTAFYVLGLISMTREGCEILDEMGWNCCVSVQDEPIGIALPNRLDRFLSYNEHKWSAFGEYSDEMIVFNKSDGDLIEKCLPIEFDLDKLLKEKDTAENPLNEKIITNKYDNDITSQTITVSGENSSLFANEGLSSPYVTQYRNDDDSIESKVLHIVSQLGNHILSNHAVKEITEINNKYGPRLFENEKMFFKVFNMMSKYRFKPHVRKFLCGLFINNRALENVIRHDNKRDKRPANFTR
Turning to B2, in assay [1], the binding entry is listed as “binds”.

B3: Avo1 (protein, UniProt Q08236 1-1176)
chain: MDTVTVLNELRAQFLRVCPEKDQMKRIIKPYIPVDEFNTEQCLDSSIRELYMNSDGVSLLPELESPPVSKDFMENYASLGKMRIMRENEGQKGKANQNLIGAEKTERDEEETRNLQDKSAKNTLIVEENGTLRYNPLNSSASNSLLNDDDHTSGKHHKTSSKEDSYLNSSMEMQKKSSKRSSLPFVRIFKSRRDHSNTSGNKNVMNTTNTRAKSSTLHPPGARHNKKGSKFDMNFDFDENLEEEDDDDDDDEEGDDIHSQFFQLDDDFDAKGSGASPAHKGINGMSNNKNNTYTNNRNSISILDDRESSNGNIGSASRLKSHFPTSQKGKIFLTDNKNDGQKSDSLNANKGIHGDGSSASGNGSVSRDGLTETESNNISDMESYINEKDLDDLNFDTVTSNINKTVSDLGGHESTNDGTAVMNRDSKDSRSNSNEFNAQNRDRITPGSSYGKSLLGSEYSEERYSNNDSSTMESGEMSLDSDMQTNTIPSHSIPMSMQKYGIYHGDDDSTLNNVFDKAVLTMNSSRHPKERRDTVISGKEPTSLTSSNRKFSVSSNLTSTRSPLLRGHGRTSSTASSEHMKAPKVSDSVLHRARKSTLTLKQDHSQPSVPSSVHKSSKEGNILIEKTTDYLVSKPKASQLSNMFNKKKKRTNTNSVDVLEYFSFVCGDKVPNYESMGLEIYIQASKKYKRNSFTTKVRKSSTIFEVIGFALFLYSTEKKPDNFEEDGLTVEDISNPNNFSLKIVDEDGEPFEDNFGKLDRKSTIQSISDSEVVLCKVDDAEKSQNEIETPLPFETGGGLMDASTLDANSSHDTTDGTINQLSFYKPIIGNEDDIDKTNGSKIIDVTVYLYPNVNPKFNYTTISVLVTSHINDILVKYCKMKNMDPNEYALKVLGKNYILDLNDTVLRLDGINKVELISKKDARELHLEKMKPDLKKPVLPTIQSNDLTPLTLEPLNSYLKADAGGAVAAIPENTKVTSKAKKISTKYKLGLAKQHSSSSVASGSVSTAGGLANGNGFFKNKNSSKSSLHGTLQFHNINRSQSTMEHTPDTPNGVGDNFQDLFTGAYHKYKVWRRQQMSFINKHERTLAIDGDYIYIVPPEGRIHWHDNVKTKSLHISQVVLVKKSKRVPEHFKIFVRREGQDDIKRYYFEAVSGQECTEIVTRLQNLLSAYRMNHK
For the molecule B3, the binding entry in assay [1] is reported as “binds”.
